For this assay, the target named is taxol stabilized microtubules. As to the kind of experiment: co-sedimentation.

Results are given in words; binding and its absence hold for the method and conditions named. Binding calls can cover weak binding; strength is not graded here. Tags and fused reporters may be left off the sequences shown.

B1: KIF18A-FL-GFP-His6 (protein, UniProt Q8NI77 1-898)
chain: MSVTEEDLCHHMKVVVRVRPENTKEKAAGFHKVVHVVDKHILVFDPKQEEVSFFHGKKTTNQNVIKKQNKDLKFVFDAVFDETSTQSEVFEHTTKPILRSFLNGYNCTVLAYGATGAGKTHTMLGSADEPGVMYLTMLHLYKCMDEIKEEKICSTAVSYLEVYNEQIRDLLVNSGPLAVREDTQKGVVVHGLTLHQPKSSEEILHLLDNGNKNRTQHPTDMNATSSRSHAVFQIYLRQQDKTASINQNVRIAKMSLIDLAGSERASTSGAKGTRFVEGTNINRSLLALGNVINALADSKRKNQHIPYRNSKLTRLLKDSLGGNCQTIMIAAVSPSSVFYDDTYNTLKYANRAKDIKSSLKSNVLNVNNHITQYVKICNEQKAEILLLKEKLKAYEEQKAFTNENDQAKLMISNPQEKEIERFQEILNCLFQNREEIRQEYLKLEMLLKENELKSFYQQQCHKQIEMMCSEDKVEKATGKRDHRLAMLKTRRSYLEKRREEELKQFDENTNWLHRVEKEMGLLSQNGHIPKELKKDLHCHHLHLQNKDLKAQIRHMMDLACLQEQQHRQTEAVLNALLPTLRKQYCTLKEAGLSNAAFESDFKEIEHLVERKKVVVWADQTAEQPKQNDLPGISVLMTFPQLGPVQPIPCCSSSGGTNLVKIPTEKRTRRKLMPSPLKGQHTLKSPPSQSVQLNDSLSKELQPIVYTPEDCRKAFQNPSTVTLMKPSSFTTSFQAISSNINSDNCLKMLCEVAIPHNRRKECGQEDLDSTFTICEDIKSSKCKLPEQESLPNDNKDILQRLDPSSFSTKHSMPVPSMVPSYMAMTTAAKRKRKLTSSTSNSSLTADVNSGFAKRVRQDNSSEKHLQENKPTMEHKRNICKINPSMVRKFGRNISKGNLR
Consider B1, for which the binding result is given as “binds”.

B2: His6-KIF15-N420 (domain or fragment, human, UniProt Q9NS87 1-420, looked up)
chain: MAPGCKTELRSVTNGQSNQPSNEGDAIKVFVRIRPPAERSGSADGEQNLCLSVLSSTSLRLHSNPEPKTFTFDHVADVDTTQESVFATVAKSIVESCMSGYNGTIFAYGQTGSGKTFTMMGPSESDNFSHNLRGVIPRSFEYLFSLIDREKEKAGAGKSFLCKCSFIEIYNEQIYDLLDSASAGLYLREHIKKGVFVVGAVEQVVTSAAEAYQVLSGGWRNRRVASTSMNRESSRSHAVFTITIESMEKSNEIVNIRTSLLNLVDLAGSERQKDTHAEGMRLKEAGNINRSLSCLGQVITALVDVGNGKQRHVCYRDSKLTFLLRDSLGGNAKTAIIANVHPGSRCFGETLSTLNFAQRAKLIKNKAVVNEDTQGNVSQLQAEVKRLKEQLAELASGQTPPESFLTRDKKKTNYMEYFQE
As for B2, the binding entry is given as “binds”.

B3: His6-GFP-KIF15-FL (protein, UniProt Q9NS87 1-1388)
chain: MAPGCKTELRSVTNGQSNQPSNEGDAIKVFVRIRPPAERSGSADGEQNLCLSVLSSTSLRLHSNPEPKTFTFDHVADVDTTQESVFATVAKSIVESCMSGYNGTIFAYGQTGSGKTFTMMGPSESDNFSHNLRGVIPRSFEYLFSLIDREKEKAGAGKSFLCKCSFIEIYNEQIYDLLDSASAGLYLREHIKKGVFVVGAVEQVVTSAAEAYQVLSGGWRNRRVASTSMNRESSRSHAVFTITIESMEKSNEIVNIRTSLLNLVDLAGSERQKDTHAEGMRLKEAGNINRSLSCLGQVITALVDVGNGKQRHVCYRDSKLTFLLRDSLGGNAKTAIIANVHPGSRCFGETLSTLNFAQRAKLIKNKAVVNEDTQGNVSQLQAEVKRLKEQLAELASGQTPPESFLTRDKKKTNYMEYFQEAMLFFKKSEQEKKSLIEKVTQLEDLTLKKEKFIQSNKMIVKFREDQIIRLEKLHKESRGGFLPEEQDRLLSELRNEIQTLREQIEHHPRVAKYAMENHSLREENRRLRLLEPVKRAQEMDAQTIAKLEKAFSEISGMEKSDKNQQGFSPKAQKEPCLFANTEKLKAQLLQIQTELNNSKQEYEEFKELTRKRQLELESELQSLQKANLNLENLLEATKACKRQEVSQLNKIHAETLKIITTPTKAYQLHSRPVPKLSPEMGSFGSLYTQNSSILDNDILNEPVPPEMNEQAFEAISEELRTVQEQMSALQAKLDEEEHKNLKLQQHVDKLEHHSTQMQELFSSERIDWTKQQEELLSQLNVLEKQLQETQTKNDFLKSEVHDLRVVLHSADKELSSVKLEYSSFKTNQEKEFNKLSERHMHVQLQLDNLRLENEKLLESKACLQDSYDNLQEIMKFEIDQLSRNLQNFKKENETLKSDLNNLMELLEAEKERNNKLSLQFEEDKENSSKEILKVLEAVRQEKQKETAKCEQQMAKVQKLEESLLATEKVISSLEKSRDSDKKVVADLMNQIQELRTSVCEKTETIDTLKQELKDINCKYNSALVDREESRVLIKKQEVDILDLKETLRLRILSEDIERDMLCEDLAHATEQLNMLTEASKKHSGLLQSAQEELTKKEALIQELQHKLNQKKEEVEQKKNEYNFKMRQLEHVMDSAAEDPQSPKTPPHFQTHLAKLLETQEQEIEDGRASKTSLEHLVTKLNEDREVKNAEILRMKEQLREMENLRLESQQLIEKNWLLQGQLDDIKRQKENSDQNHPDNQQLKNEQEESIKERLAKSKIVEEMLKMKADLEEVQSALYNKEMECLRMTDEVERTQTLESKAFQEKEQLRSKLEEMYEERERTSQEMEMLRKQVECLAEENGKLVGHQNLHQKIQYVVRLKKENVRLAEETEKLRAENVFLKEKKRSES
On to B3, for which the binding entry is on record as “no binding (tested: 135 nM of kinesin)”.

B4: KIF18A-N480-GFP-His6 (domain or fragment, human, UniProt Q8NI77 1-480, looked up)
chain: MSVTEEDLCHHMKVVVRVRPENTKEKAAGFHKVVHVVDKHILVFDPKQEEVSFFHGKKTTNQNVIKKQNKDLKFVFDAVFDETSTQSEVFEHTTKPILRSFLNGYNCTVLAYGATGAGKTHTMLGSADEPGVMYLTMLHLYKCMDEIKEEKICSTAVSYLEVYNEQIRDLLVNSGPLAVREDTQKGVVVHGLTLHQPKSSEEILHLLDNGNKNRTQHPTDMNATSSRSHAVFQIYLRQQDKTASINQNVRIAKMSLIDLAGSERASTSGAKGTRFVEGTNINRSLLALGNVINALADSKRKNQHIPYRNSKLTRLLKDSLGGNCQTIMIAAVSPSSVFYDDTYNTLKYANRAKDIKSSLKSNVLNVNNHITQYVKICNEQKAEILLLKEKLKAYEEQKAFTNENDQAKLMISNPQEKEIERFQEILNCLFQNREEIRQEYLKLEMLLKENELKSFYQQQCHKQIEMMCSEDKVEKATGKR
Consider B4, for which the binding entry was “binds”.
